PubChem BioAssay AID1224829, NIAID – 2016
This is an unselected part of about 3,800 deposited reagents. 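Calls cover raised and lowered translocation; gene median uses one vendor's three siRNAs; qiagen siRNAs acted more weakly than ambion siRNAs.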 Entries without a mark were called inactive. The numbers tell different reagents against one gene apart. Further read-outs or replicates are left out here. No sequences are given here.

Assay: 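Secondary check of hits that alter LPS-induced p65 translocation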 (follow-up of hits)
Cell system: mouse RAW264.7 G9 macrophage reporter cells
Reagent: single siRNA against mouse genes, 100 nM
Duration: 2 days of siRNA knock-down, then 40 min of LPS before fixing
Treatment: LPS (Salmonella minnesota R595) at 10 ng/ml
Measured: 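Imaging of GFP-p65 after 40 min of LPS; nuclear over perinuclear ring intensity ratio, scaled to plate median and non-targeting control wells, given as z-score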
Scale: p65 translocation z-score: higher = more nuclear NF-kappaB p65 after LPS
Rule for the call: 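An siRNA is called active when the mean z-score of its two replicates is above 2 or below -2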
Calls: active = changed p65 translocation (either direction); inactive = no clear change

no.	gene knocked down	reagent	siRNA vendor or control pool	p65 translocation z-score, replicate mean	p65 translocation z-score, replicate 1
1	Csf2ra	1	ambion single siRNA	-3.83 (active)	-4.34
2	Csf2ra	2	ambion single siRNA	0.18	1.04
3	Csf2ra	3	ambion single siRNA	2.67 (active)	3.28
4	Csf2ra	4	qiagen single siRNA	1.49	1.02
5	Csf2ra	5	qiagen single siRNA	-0.452	-2.06
6	Csf2ra	6	qiagen single siRNA	0.642	1.21
7	Hdac5	1	ambion single siRNA	-0.807	-0.807
8	Hdac5	2	ambion single siRNA	-1.73	-1.28
9	Hdac5	3	ambion single siRNA	-1.99	-2.15
10	Hdac5	4	qiagen single siRNA	0.433	0.265
11	Hdac5	5	qiagen single siRNA	-1.85	-1.67
12	Hdac5	6	qiagen single siRNA	-2.67 (active)	-2.43
13	Hdac7	1	ambion single siRNA	0.749	0.86
14	Hdac7	2	ambion single siRNA	-1.18	-1.8
15	Hdac7	3	ambion single siRNA	0.677	0.677
16	Hdac7	4	qiagen single siRNA	1.1	-0.166
17	Hdac7	5	qiagen single siRNA	-2.08 (active)	-2.08
18	Hdac7	6	qiagen single siRNA	-2.01 (active)	-1.01
19	Syk	1	ambion single siRNA	-2.04 (active)	-1.96
20	Syk	2	ambion single siRNA	-2.46 (active)	-2.74
21	Syk	3	ambion single siRNA	-5.48 (active)	-6.39
22	Syk	4	qiagen single siRNA	-1.4	-1.81
23	Syk	5	qiagen single siRNA	1.46	0.596
24	Syk	6	qiagen single siRNA	-1.16	-0.737
25	Polr2d	1	ambion single siRNA	0.304	1.9
26	Polr2d	2	ambion single siRNA	-9.32 (active)	-9.65
27	Polr2d	3	ambion single siRNA	-5.53 (active)	-5.25
28	Polr2d	4	qiagen single siRNA	-1.67	-0.191
29	Polr2d	5	qiagen single siRNA	-1.43	-0.554
30	Polr2d	6	qiagen single siRNA	-6.28 (active)	-6.28
31	Plekho2	1	ambion single siRNA	1.12	2.02
32	Plekho2	2	ambion single siRNA	1.16	1.05
33	Plekho2	3	ambion single siRNA	-2.67 (active)	-2.79
34	Plekho2	4	qiagen single siRNA	1.15	1.19
35	Plekho2	5	qiagen single siRNA	0.565	0.565
36	Plekho2	6	qiagen single siRNA	-1.87	-2.21

Continued (3 carried over from the part before).
no.	gene knocked down	reagent	siRNA vendor or control pool	p65 translocation z-score, replicate mean	p65 translocation z-score, replicate 1
34	Plekho2	4	qiagen single siRNA	1.15	1.19
35	Plekho2	5	qiagen single siRNA	0.565	0.565
36	Plekho2	6	qiagen single siRNA	-1.87	-2.21
37	Nxnl1	1	ambion single siRNA	-3.11 (active)	-2.47
38	Nxnl1	2	ambion single siRNA	-0.833	0.431
39	Nxnl1	3	ambion single siRNA	-2.1 (active)	-2.56
40	Nxnl1	4	qiagen single siRNA	0.983	1.14
41	Nxnl1	5	qiagen single siRNA	-1.71	-1.5
42	Nxnl1	6	qiagen single siRNA	-3.15 (active)	-2.69
43	Bpifa1	1	ambion single siRNA	-0.385	0.726
44	Bpifa1	2	ambion single siRNA	-4.39 (active)	-4.12
45	Bpifa1	3	ambion single siRNA	-0.921	-0.103
46	Bpifa1	4	qiagen single siRNA	1.18	-0.85
47	Bpifa1	5	qiagen single siRNA	0.694	0.0597
48	Bpifa1	6	qiagen single siRNA	0.246	-1.33
49	6030452D12Rik	1	ambion single siRNA	-0.151	-0.355
50	6030452D12Rik	2	ambion single siRNA	-3.75 (active)	-4.88
51	6030452D12Rik	3	ambion single siRNA	-2.22 (active)	-0.741
52	6030452D12Rik	4	qiagen single siRNA	3.18 (active)	3.11
53	6030452D12Rik	5	qiagen single siRNA	3.28 (active)	2.06
54	6030452D12Rik	6	qiagen single siRNA	2.13 (active)	2.13
